Measurements from the supplement of paper PMC3334620.
In all, about 33,000 sequences were measured (“E-score (-0.5 to 0.5)”: median about -0.0034, highest 2% from about 0.25 on). The list shows a part of the results.

Each sequence was assayed against T1, Yap3 (UniProt P38749) (assay: PBM E-score (8-mer binding enrichment) (E-score (-0.5 to 0.5)); higher = stronger / more preferred TF binding). Conditions: protein concentration: 100 nM; construct: GST-full length.
T1 sequence: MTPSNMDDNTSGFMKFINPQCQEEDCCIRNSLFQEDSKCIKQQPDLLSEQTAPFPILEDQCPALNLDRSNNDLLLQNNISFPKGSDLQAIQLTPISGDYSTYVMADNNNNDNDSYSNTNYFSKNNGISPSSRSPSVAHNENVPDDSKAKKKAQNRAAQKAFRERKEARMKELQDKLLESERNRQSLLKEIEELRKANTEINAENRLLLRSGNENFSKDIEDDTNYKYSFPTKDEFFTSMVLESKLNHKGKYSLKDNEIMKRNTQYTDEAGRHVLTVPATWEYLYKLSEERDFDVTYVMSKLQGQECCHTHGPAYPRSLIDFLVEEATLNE
Outline: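 E-scores (a modified Wilcoxon-Mann-Whitney statistic) were assigned by the Universal PBM Analysis Suite to every ungapped eight-base word pooled with its reverse complement. The input came from universal all-10-mer Agilent arrays made double-stranded by primer extension and probed with GST-tagged yeast transcription factors at about 100-200 nM. Fluorescent anti-GST detected bound protein, and masliner normalised the scans.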

Row | Sequence | PBM E-score
1 | AAAGGCCG | -0.108
2 | GGGGAGTA | -0.116
3 | ATACTTGG | -0.0233
4 | AATGGGTG | 0.0388
5 | ATCTATGG | -0.182
6 | CATTCCCG | 0.13
7 | CATTAACC | 0.0349
8 | ATCAGTCG | 0.195
9 | CCTACGTC | -0.0725
10 | ATGAATTA | 0.196
11 | ACTGTTCT | 0.153
12 | AAAACCAA | 0.0105
13 | ATTCACTC | -0.0603
14 | CGGGGGAA | -0.215
15 | AGTAGGAA | 0.0161
16 | AGTAGGTC | -0.147
17 | CCAGGTGC | -0.122
18 | AGGTCCCA | -0.0727
19 | CCGGTCCA | -0.26
20 | AGCTTAGG | 0.0538
21 | CAGGTCCG | -0.194
22 | ACCTAGAC | -0.229
23 | CTCCAAAC | 0.0359
24 | CTAGTTCC | 0.191
25 | GGTGTGCA | -0.183

Row | Sequence | PBM E-score
26 | GTGAACCA | 0.153
27 | TACTCCTA | 0.0235
28 | CTCACCTA | 0.00489
29 | CACGTTTA | 0.0232
30 | GAGAGTCC | -0.127
31 | CTTTATGA | 0.0453
32 | AAGACAGG | 0.0491
33 | ACCTCGAT | 0.115
34 | CGACGCCA | -0.143
35 | AGTGTCCA | -0.0245
36 | AATTGTAG | 0.0862
37 | CCGCGAAG | -0.125
38 | AAAAGCGG | -0.0475
39 | TCCGCGAA | 0.086
40 | AGAACTGC | -0.131
41 | AGATCACG | 0.128
42 | GACAGTTA | 0.16
43 | AAATAAAG | 0.226
44 | ATCACGAA | 0.123
45 | TCACTAAA | 0.121
46 | CGACTAAA | 0.0269
47 | AGCACAGG | -0.0469
48 | CATCATCC | 0.0479
49 | AATGTACA | 0.156
50 | CCTAGTAA | -0.137

Row | Sequence | PBM E-score
51 | CCATGCGC | -0.0427
52 | AATTGGAC | 0.17
53 | AGGACCCA | -0.277
54 | ACGCAGTC | -0.356
55 | GGCTACGA | -0.0605
56 | CTCGACCA | -0.132
57 | AACTATAG | 0.0554
58 | GGTGCACC | -0.145
59 | CAGAATCA | 0.0924
60 | ACCTGACT | 0.0961
61 | GCCGAATA | 0.115
62 | GCACTTAA | -0.00582
63 | AAACGGAT | 0.277
64 | CACGCCTC | -0.079
65 | CCGAGGCA | -0.117
66 | ATTGCTCG | 0.0689
67 | CTTTCAAA | 0.166
68 | CCGTCTAC | 0.0811
69 | ACGTACAT | 0.169
70 | ATTGGTGG | 0.159
71 | CCGTGAAG | -0.167
72 | GTCATAGA | 0.097
73 | CTTTCTGC | 0.134
74 | GTTCTTAA | 0.099
75 | GCAGTCCC | -0.274

Row | Sequence | PBM E-score
76 | GGGGTGAA | -0.078
77 | CATCGGTA | 0.0494
78 | CTTAATCC | -0.0154
79 | AGCCACAA | 0.0324
80 | AAGTCACG | -0.0562
81 | ATAATCCC | 0.0012
82 | ATAACCAA | 0.243
83 | CAAAATCC | 0.175
84 | CGTTTAAA | 0.0721
85 | GAAGACAC | 0.0883
86 | CCGATGGA | -0.128
87 | GACCTCGC | -0.213
88 | CAGTTTAC | -0.0295
89 | AGTTTAGC | 0.0635
90 | AATGCACG | -0.00779
91 | CACCAATG | 0.0776
92 | AGAAAAGA | 0.0128
93 | GAACTCGA | 0.0106
94 | TCTACGCA | 0.00875
95 | AGAGTCGG | -0.115
96 | CGGTCGGC | -0.244
97 | AGAGTTAA | 0.0136
98 | GAACCCGC | -0.189
99 | AACGAGGA | 0.0742
100 | GGAATTCC | -0.111

Row | Sequence | PBM E-score
101 | AAAAATCT | 0.118
102 | TCTAAGCA | 0.00349
103 | AATAGTGG | 0.123
104 | GGATGTGA | 0.0087
105 | GCAACCGA | -0.116
106 | CGAAGTTC | -0.00893
107 | AACTTGCC | -0.0565
108 | AACCCGTG | -0.345
109 | ATGCCTAC | -0.122
110 | GTTTGTCA | 0.133
111 | AGAATTAG | 0.0612
112 | ATAATCTC | 0.17
113 | CCTGACTA | 0.202
114 | TGAAGCAA | -0.0816
115 | ATGCGAAC | -0.0417
116 | GGTCTTTA | 0.01
117 | AACCTGCT | -0.0536
118 | CCGCGCTC | 0.0144
119 | CATTTACG | 0.0357
120 | ATCGTTAG | 0.0757
121 | AATCGAGA | 0.0486
122 | CGTAGCGC | -0.167
123 | GAATCGCA | -0.158
124 | GCTTCTTA | -0.0834
125 | ATTTCGAG | 0.141

Row | Sequence | PBM E-score
126 | ATACGGAG | 0.0911
127 | CGTAGTAG | -0.0666
128 | AATAGCAA | 0.151
129 | ATGCGTTA | 0.0735
130 | GCCGTAGA | 0.0616
131 | GGTAAGTA | 0.0243
132 | AAAAGCAA | 0.222
133 | ATCCCGAC | 0.0397
134 | ATTGGTAG | 0.0436
135 | AGGGGCAG | -0.194
136 | ACAAGACA | 0.0972
137 | ACCGATAC | 0.00349
138 | AATACAAA | 0.259
139 | ACGCGGTG | -0.168
140 | GAAGATGC | -0.0796
141 | CCGATATC | 0.0559
142 | AAGGGCTG | -0.267
143 | GGAGGGAA | -0.173
144 | GAACCTAA | 0.0358
145 | CGCCAAAC | -0.0374
146 | GGCGATCA | -0.179
147 | AGATTGGA | 0.0555
148 | CCTATACC | -0.0683
149 | CAGACAGG | -0.236
150 | AATGCCGT | 0.217

Row | Sequence | PBM E-score
151 | AGGACGAA | 0.0409
152 | CTCGCCCA | -0.0854
153 | TAAAGCAA | 0.137
154 | CATTGCAA | 0.0671
155 | AGCCTTCA | -0.0428
156 | CTAGTGAC | -0.116
157 | TGCAGCCA | 0.0614
158 | AATCACTA | 0.077
159 | ATTGGGGA | -0.104
160 | CATGAGCC | -0.128
161 | CGCAGTAG | -0.12
162 | CCATAGCG | -0.0496
163 | ATTGTCCG | 0.216
164 | AATTGCCA | 0.0936
165 | CTCGATGA | 0.0654
166 | GGTACAAA | 0.0676
167 | TATCACCA | 0.0589
168 | AGCCAGCT | -0.102
169 | AACACCTC | -0.0135
170 | CGCATCGA | 0.0858
171 | CTAGAGGC | -0.141
172 | GTGCCGGA | -0.167
173 | CCGTCTCG | -0.0455
174 | GGACGGGA | -0.213
175 | GAGTAAGA | 0.0687

As entered above.
Entry of CCATAGCG under PBM E-score: -0.0496
Entry of CTCGATGA under PBM E-score: 0.0654
Entry of CATTGCAA under PBM E-score: 0.0671
Entry of CGCATCGA under PBM E-score: 0.0858

Continued.

Row | Sequence | PBM E-score
176 | AACCACTA | 0.0336
177 | GCTTAACC | -0.00627
178 | ACGATCGA | 0.121
179 | AGTGCAGC | -0.0223
180 | ATCACGGC | 0.0643
181 | CGCTTTTA | 0.115
182 | GTTCCTGA | -0.119
183 | AGTGACGC | -0.0717
184 | AATATGAT | 0.279
185 | ACCTGGAG | -0.0509
186 | TACTGCAA | 0.101
187 | CGCATAAC | 0.183
188 | ATTACGTC | 0.33
189 | TATTCCGA | 0.189
190 | AACTTGCT | -0.0686
191 | CACGATTC | 0.0883
192 | AACAAGGC | 0.0204
193 | CGAAACAC | 0.0611
194 | GACTTCCC | -0.173
195 | CAGGCCTC | -0.125
196 | GCTCGACA | -0.1
197 | ACAAGTCA | -0.0818
198 | AAATGCAT | 0.125
199 | ATGACAGG | -0.0381
200 | AGATGCTA | -0.0872

Reprinted at random: seven records from the list, in no set order.
Row | Sequence | PBM E-score
67 | CTTTCAAA | 0.166
99 | AACGAGGA | 0.0742
112 | ATAATCTC | 0.17
176 | AACCACTA | 0.0336
102 | TCTAAGCA | 0.00349
94 | TCTACGCA | 0.00875
85 | GAAGACAC | 0.0883

(list continues)

Row | Sequence | PBM E-score
201 | ACACGTGG | -0.047
202 | CTGTCGGA | -0.035
203 | GGCATAAC | 0.0534
204 | AACATGGG | 0.105
205 | TGCAGGCA | -0.188
206 | TACAGTGA | 0.163
207 | AGCAAGGC | -0.0698
208 | CCAATCGC | 0.131
209 | ACCCTTGG | -0.251
210 | TCCAGCCA | -0.157
211 | TCAGGAAA | -0.0413
212 | ATATTGGA | 0.171
213 | AAGTGATC | 0.0526
214 | CTCGGTCA | -0.0148
215 | CCGAGCCA | -0.0811
216 | ACCCGGGG | -0.208
217 | TAGTGGGA | -0.0516
218 | GATTACGC | 0.108
219 | AATTTAAT | 0.261
